PMC10163288
This is one part of the list.

B1: il2ra_site1_2b5i_sap_13_mot_HHH_b2_04463_af2_000000056_0001_43_55_H_._HHH_b2_08206_af2_0001_0000100008_0000001_0_0001 (protein)
chain: SSSSSSREVLELFHEAHELAREGDEEKAREVLEEAEELAEREGSPNVLRMVRAALRASNSSSSSS
B2: il2ra_site1_3nfp_sap_12_mot_HHH_b2_06110_000000263_0001_43_57_H_._HHH_b2_06718_0001_0001000039_0000001_0_0001_af2pred_0001_af2pred (protein)
chain: TEALVILLRFREEKTGDPEEAVRLVVKLIEEHLRVPPEEAAEFLREALEKVDEELAEKVEELLRK
B3: il2ra_site2_3nfp_normal_mot_HHH_b1_07095_000000265_0001_1_20_H_._HHH_b1_05163_0001_0000400031_0000001_0 (protein)
chain: SSSSDEFEELEERIRRAIEEGDEELVRELLRRISQLAFEKRNFELFAIVNELMELLLELESSSSS
B4: il2ra_site1_2b5i_sap_7_mot_HHH_b1_01346_af2_000000027_0001_1_20_H_._HHH_b2_04126_af2_0001_0000100001_0000001_0_0001 (protein)
chain: SSSSDEADEQLEELFHEASRLYRNGNPEEARRVLEEAIELAEELGNPSDLKDLRRFLELLKSSSS
B5: il2ra_site1_1z92_normal_mot_HHH_b1_05862_af2_000000270_0001_22_38_H_._HHH_b1_00145_0001_0000200011_0000001_0 (protein)
chain: SSSSDRAEEWAFKLAELVLERYERVGDPKAREQVEFLIEDLELLGNPELAEELEEILERIDSSSS
B6: il2ra_site2_2erj_normal_mot_HHH_b2_06005_000000006_0001_1_15_H_._HHH_b2_03858_0001_0000100005_0000001_0 (protein)
chain: SSSSDEEEIEERIEELLEEARKIPDPREAERLVREAFELAYRLNDPRLALEVMRVAEELFSSSSS
B7: il2ra_site2_3nfp_sap_22_mot_HHH_b1_03540_000000074_0001_22_39_H_._3041c9cb0459c08fbffb1fc7c11e07cd_0001_af2_0001_0000800023_0000001_0_0001 (protein)
chain: GPVEETIKEAIERGDPEYATDVLAALIIIVRAWGDPALEEHLEEAEELVEELDPEVLRLAEERAN
B8: il2ra_site2_3nfp_sap_25_mot_HHH_b2_07186_000000286_0001_42_55_H_._HHH_b2_06885_0001_0000200024_0000001_0_0001 (protein)
chain: SSSSDEEEAEELLRQLERALEEGDEELFRELAQRVSHLVFKLGDHELFAKLAELLYRFQSLSSSS
B9: il2ra_site1_1z92_normal_mot_HHH_b2_07193_000000005_0001_24_40_H_._66959ead3e6c57cb3ef8243f3eb758e0_0001_1_af2_0001_0000300033_0000001_0_af2pred_dldesign_0_af2pr … (protein)
chain: SQAEQELRDAVESEDEAALREFLATLLKDTGNPELAEQFLRYLVKRLGLPEEVLERLRALLEELA
B10: il2ra_site1_1z92_sap_15_mot_HHH_b1_01245_000000029_0001_23_39_H_._HHH_b2_06256_af2_0001_0000200020_0000001_0_0001_af2pred_0001_af2pred (protein)
chain: SHAEKFIREMLERKLKKDVEAAAKLLLKSARSARDPERAEAAEEALELVKRDPEEAERLIRELLK
B11: il2ra_site2_3nfp_normal_mot_HHH_b1_01086_000000225_0001_20_36_H_._HHH_b1_05415_0001_0000400024_0000001_0_af2pred_0001_af2pred (protein)
chain: SSSSSDELEEEVEELLEQAKRIPDPFERFAALAEAAALVIENNNEELEELVKKVSRELQSSSSSS
B12: il2ra_site1_2b5i_sap_11_mot_HHH_b1_06900_af2_000000048_0001_21_36_H_._a1725d017d863e7f4c76c21e96fab134_0001_1_af2_0001_0000100009_0000001_0_0001_af2pred_0001_af … (protein)
chain: SSSSSTLAQKAAELLEEANEADRNGDPEEARKLLEEAEKIAEEAGSKSLLRSIRVALEQLSSSSS
B13: il2ra_site2_2erj_sap_24_mot_HHH_eva_0385_af2_000000151_0001_25_42_H_._HHH_b1_07782_af2_0001_0000100008_0000001_0_0001 (protein)
chain: SSSSDERLRELYELAARLTRAIFEGDEELIRELAEEIRRIIEEAKSENAREILEALERRGSSSSS
B14: il2ra_site1_1z92_normal_mot_HHH_b2_04375_000000267_0001_42_56_H_._HHH_b2_00211_af2_0001_0000200032_0000001_0 (protein)
chain: SSSDEEELEEFAEKVVRRLVEELGLSEHTEEALRKDAELLIRLGFSEKAIKIALESNARLASSSS
B15: il2ra_site2_3nfp_sap_17_mot_73f63e3ba0c5fbd29b02c38bc3203c89_0001_1_000000101_0001_17_33_H_._HHH_b1_05402_0001_0000200013_0000001_0_0001_af2pred_0001_1_af2pred_ … (protein)
chain: SSSSSLEEVVERAKELAKEVTDRRVRFELRALAFQLELTGDPKLEELLEKLIRLVEEALKGSSSS
B16: il2ra_site2_2erj_sap_22_mot_HHH_b1_04560_000000168_0001_43_57_H_._HHH_b2_07495_0001_0000400017_0000001_0_0001_af2pred_0001_1_af2pred_swapped (protein)
chain: SSSDEEVEERLERLLEELVKELNLSETAELLLKLLVETLLKLGASEEEAKRQVELSARNLAESSS
B17: il2ra_site1_2b5i_normal_mot_571275078a2094b209398d2bd903418f_0001_1_af2_000000140_0001_35_48_H_._f5ff40796168375b462bec8614a1db4a_0001_1_0001_0000200012_0000001 … (protein)
chain: SRRYTEELRQLIEELGDPEEAVEILKRELEKLGHSPEAVLRFIALALSKVGDPELARRILEELKR
B18: il2ra_site1_1z92_normal_mot_01209686ea234b34325f918445e6eade_0001_af2_000000154_0001_18_33_H_._HHH_b1_05532_af2_0001_0000400046_0000001_0_af2pred_0001_af2pred_s … (protein)
chain: SSSSDEEEEAQRLAEEIAEELGLSEEDRKALERDAEAAFKMGFSPEKIERALRRLVKLFLSSSSS
B19: il2ra_site1_1z92_sap_14_mot_HHH_b2_04375_000000267_0001_42_56_H_._HHH_b1_00305_0001_0000100012_0000001_0_0001_af2pred_dldesign_0_af2pred (protein)
chain: SSSSSDPDALDDKVYELFLKTYHVDKEEREKLLEEAIKLAKEAGFEKIVKELEEYKKLLSSSSSS

What follows are binders tested against il2ra, P01589 (assay: yeast display titration).

Apparent Kd, inactive:
B1 no binding seen
B2 no binding seen
B3 no binding seen
B4 no binding seen
B5 no binding seen
B6 no binding seen
B7 no binding seen
B8 no binding seen
B9 no binding seen
B10 no binding seen
B11 no binding seen
B12 no binding seen
B13 no binding seen
B14 no binding seen
B15 no binding seen
B16 no binding seen
B17 no binding seen
B18 no binding seen
B19 no binding seen

Reprinted at random: two entries already listed.
Apparent Kd, inactive:
B1 no binding seen
B14 no binding seen
